Data from patent publication US10624880B2, “Predicting response to alvocidib by mitochondrial profiling” (Tolero Pharmaceuticals, Inc., priority 2015, dated 2020).
For at least one compound, name, drawing or mass did not settle the structure.

Tested on: MCL-1 in MV-4-11 cells
Assay: MCL-1 immunoblotting in the ACM (or FLAM) regimen modeled in vitro
Format: cell-based
Details: MV-4-11, each treatment dosed at its 24 hour EC50, FIG. 17B
Source text: Following the treatment, cells were harvested and prepared using standard immunoblotting techniques for detection of MCL-1.

CC(=O)c1c(C)c2cnc(Nc3ccc(N4CCNCC4)cn3)nc2n(C2CCCC2)c1=O [palbociclib]
relative expression of MCL-1 compared to β-actin: lower the expression of MCL-1
